Reference: PubChem BioAssay AID2551 (National Center for Advancing Translational Sciences (NCATS), 2010)
The whole screen tested about 310,000 compounds, of which about 17,000 (5.5%) were called active. The shares of active, inactive and inconclusive entries below differ from those in the screen. The call rests on the fitted dose curve; in most records, active means well fitted inhibition curve with a large enough effect; inconclusive means small, poorly fitted or top-dose-only effect, or effect the other way; inactive means no such curve, though single readings can be large or run the other way. Potencies of inconclusive entries are doubtful fits and often do not repeat.

Amino acid sequences for entries named in this document (tags omitted). A change or cut given only in a name is not applied to a line headed by its entry.
UniProt P51450: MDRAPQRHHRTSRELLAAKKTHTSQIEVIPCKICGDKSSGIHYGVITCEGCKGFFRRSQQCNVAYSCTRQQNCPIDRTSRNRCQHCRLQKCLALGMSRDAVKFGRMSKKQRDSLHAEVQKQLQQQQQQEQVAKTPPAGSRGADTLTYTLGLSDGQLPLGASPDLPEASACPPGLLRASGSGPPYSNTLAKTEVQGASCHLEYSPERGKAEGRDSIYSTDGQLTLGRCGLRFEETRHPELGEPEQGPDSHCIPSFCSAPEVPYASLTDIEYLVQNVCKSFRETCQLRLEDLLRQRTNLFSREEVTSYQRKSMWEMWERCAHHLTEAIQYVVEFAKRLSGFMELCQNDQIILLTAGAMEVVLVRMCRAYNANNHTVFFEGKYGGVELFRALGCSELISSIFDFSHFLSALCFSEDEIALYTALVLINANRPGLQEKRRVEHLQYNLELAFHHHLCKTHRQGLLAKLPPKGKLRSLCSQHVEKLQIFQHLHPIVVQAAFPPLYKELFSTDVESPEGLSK

Each compound was assayed against Nuclear receptor ROR-gamma (Mus musculus) (UniProt P51450) (assay: qHTS for inhibitors of ROR gamma transcriptional activity). Settings: Drosophila S2 Gal4-RORgamma UAS-luciferase reporter, 20 h; activity change, negative = inhibition: at 53.6 µM (top of the series).
Summary of the method: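 Read-out: Photinus luciferase luminescence; inhibitors lower reporter signal. Insect Schneider cells with Gal4-ROR gamma fusion under metallothionein promoter, UAS reporter; 700 uM final copper sulfate induction, 20 hr, ambient temperature.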
Further: nearly all actives have a fitted effect of over 60% in size.
On the % scale 0 is the no-effect control and ±100 the full control effect; potency means the concentration at half of the fitted maximal effect.

Potency, active:
COc1cc(C)ccc1OCCCOc1ccccc1Br 12.6 µM
C=CCNC(=S)NCc1ccccc1OC 11.2 µM
CCOc1ccc2nc(Nc3nc4ccc(NC(C)=O)cc4s3)sc2c1 3.16 µM
O=C(CCN1CCN(c2ccccc2)CC1)N/N=C/c1ccccc1OC(F)F 11.2 µM
COc1ccc(NC(=O)C23CC4CC(C2)CC(n2cnc(Br)n2)(C4)C3)c(OC)c1 5.62 µM
COc1ccc(N2C(S)=C(C#N)C(=O)NC2c2ccc(OC)c(OC)c2)cc1 (stereo unspecified) 11.2 µM
N#C/C(=C(/O)COC(=O)CCCNC(=O)c1ccc(Cl)cc1)c1nc2ccccc2[nH]1 11.2 µM
COCCNC(=S)NC(=O)c1ccc(C(C)(C)C)cc1 2 µM
COc1ccc(-n2ncc3c(N4CCC(C)CC4)ncnc32)cc1 8.91 µM
C(=C\c1ccccc1)/C=N/Nc1nncc(-c2ccccc2)n1 2.24 µM
COc1ccccc1-c1c(C)nn2c(NCCN3CCCC3)cc(C)nc12 6.31 µM
Cn1c(=O)c2c(nc(NCc3ccco3)n2C/C=C/c2ccccc2)n(C)c1=O 2.24 µM
Cc1ccc(Nc2cc(C)c(O)c(C)c2)cc1 8.91 µM
CCC(O)CNc1nc(-n2nc(C)cc2C)nc2sc3c(c12)CC(C)(C)OC3 (stereo unspecified) 1.58 µM
C(=N\Nc1ccccn1)/c1ccc2c(c1)OCCO2 12.6 µM
CCn1c(CSCc2ccc(C)cc2)n[nH]c1=S 5.62 µM

Potency, inactive:
O=C(O)c1cccnc1C(=O)O

Potency, inconclusive:
O=c1cc(C(F)(F)F)[nH]c2c(C(F)(F)F)cccc12 35.5 µM [inhibitor, single point]
c1ccc(CCc2nn3c(C4COc5ccccc5O4)nnc3s2)cc1 (stereo unspecified) 14.1 µM [activator, single point]
Cc1ccc(-n2cc3ccc([N+](=O)[O-])cc3n2)cc1 10 µM [inhibitor, partial curve, poor fit]
COc1ccc(-c2ccc([C@H]3[C@H]4C=CC[C@@H](C)[C@@H]4C(=O)N3Cc3ccccc3)c(F)c2)cc1OC 11.2 µM [activator, single point]
Cc1ccc(C)c(S(=O)(=O)ON2C(=O)c3ccccc3C2=O)c1 17.8 µM [inhibitor, single point]
CC(C)(C)C(=O)N(Cc1ccc(Cl)cc1)c1cnccn1 31.6 µM [activator, single point]
Cn1c(SCc2ccccc2)nnc1-c1ccc2c(c1)OCO2 1 µM [activator, partial curve]
COc1cccc(CNc2ccc(N3CCCCC3)cc2)c1OC 35.5 µM [inhibitor, single point]
COc1cc(NC(=O)c2cccc(Cl)c2)ccc1NC(=O)c1cccs1 35.5 µM [activator, single point]
C/C(=N\Nc1cccc(C(=O)O)c1)c1cc2ccccc2o1 3.16 µM [activator, full curve, poor fit]
Cc1nnc(SCCC(=O)Nc2nc(-c3ccccc3)ns2)s1 31.6 µM [activator, single point]
CCOC(=O)Cc1csc(NC(=O)c2cc(=O)c3ccccc3o2)n1 8.91 µM [activator, partial curve]
CC(=O)c1cccc(NC(=O)Nc2ccc(C(=O)N3CCCC3)cc2)c1 3.55 µM [inhibitor, full curve]
COc1cc(C2CC(=O)c3c(ccc4ccccc34)N2)ccc1O (stereo unspecified) 10 µM [inhibitor, partial curve, poor fit]
COc1ccc(OC)c(NC(=S)Nc2ccccc2)c1 20 µM [inhibitor, single point]
COC(=O)Nc1sc2c(c1C(=O)NCc1ccco1)CCC2 35.5 µM [activator, single point]
COc1cccc(Cn2c(=O)cnc3cncnc32)c1 0.0447 µM [activator, full curve, poor fit]
CCc1cc(-c2n[nH]c(=S)n2CC)cs1 3.16 µM [inhibitor, single point]
O=C(/C=C/c1ccccc1)NC(NC(=S)Nc1ccc(Cl)cc1Cl)C(Cl)(Cl)Cl (stereo unspecified) 7.08 µM [inhibitor, partial curve]
CC(=O)Nc1ccc(/C(C)=N/NC(=O)c2ccncc2)cc1 10 µM [inhibitor, single point]
Nc1nc(SCC(=O)N2CCCc3ccccc32)[nH]c(=O)c1-c1ccccc1 22.4 µM [activator, single point]
O=c1cc(C(F)(F)F)nc(-n2[nH]c3c(c2=O)CCCC3)[nH]1 35.5 µM [inhibitor, single point]
COc1ccc(C(=O)Nn2c(SCC(=O)NC3CCCCC3)nc3ccccc3c2=O)cc1 20 µM [inhibitor, single point]
O=C(CSCC(=O)N1CCN(c2ccccc2)CC1)Nc1nc(-c2ccc(Cl)s2)cs1 2.51 µM [activator, partial curve, poor fit]
O=C(c1ccccc1)c1ccc(OCCn2cnc3ccccc3c2=O)cc1 31.6 µM [activator, single point]
Cc1ccc(/C=C2/Sc3ccc(C(=O)NCc4ccccn4)cc3NC2=O)cc1 11.2 µM [inhibitor, partial curve]
O=C(Nc1nc2ccc(F)cc2s1)c1cccs1 11.2 µM [inhibitor, single point]
CCc1ccc(Nc2nnc(SCC(=O)NC(=O)c3cccn3C)s2)cc1 10 µM [inhibitor, partial curve]
CC(=O)c1cc(NC(=O)c2ccc(C)cc2)c(=O)oc1C 15.8 µM [inhibitor, single point]
C/C(=C\C(=O)c1ccncc1)Nc1ccccc1O 35.5 µM [inhibitor, single point]
COc1ccccc1C(=O)CSc1nnc(-c2ccco2)o1 14.1 µM [inhibitor, single point]
COc1ccccc1-c1ccc2ncnc(NCc3ccccc3)c2c1 31.6 µM [activator, single point]
Cc1nn(-c2ccc(F)cc2)c(Cl)c1/C=N/NC(=O)c1ccc(O)cc1 1.58 µM [inhibitor, full curve]
O=C1NC(c2ccccc2)=C(c2nc3ccccc3s2)C(c2ccc(O)cc2)N1 (stereo unspecified) 14.1 µM [activator, single point]
COc1cc(SSc2cc(OC)cc([N+](=O)[O-])c2N)c(N)c([N+](=O)[O-])c1 35.5 µM [activator, single point]
O=C(Cc1ccccc1)n1nc(-c2ccco2)nc1SCc1ccccc1 8.91 µM [activator, partial curve]
CCC1=NN(C(=O)C(=O)Nc2ccc(OC)cc2)C(O)(C(F)(F)F)C1 (stereo unspecified) 3.55 µM [activator, partial curve]
Cc1ccc(Nc2nnc(SCC(=O)NC3CCCc4ccccc43)s2)cc1 (stereo unspecified) 14.1 µM [activator, single point]
Cc1cc(C)c(S(=O)(=O)Nc2c(C)[nH]c(=O)[nH]c2=O)c(C)c1 35.5 µM [activator, single point]

Activity change, negative = inhibition, inactive:
Cc1ccccc1CN(c1ccc(C(=O)Nc2cccnc2)cc1)S(C)(=O)=O 18.2%
COc1ccc2[nH]c(=O)c(C3c4cc(OC)c(OC)cc4CCN3C(=O)c3ccco3)cc2c1 (stereo unspecified) -0.908%
Cc1ccc(-c2nc3ncccn3c2NC2CCCCC2)o1 2.74%
CCc1ccccc1OCCCOc1ccc(OC)cc1 -3.33%
O=C(c1ccc(OC2CCN(Cc3ccccn3)CC2)cc1)N1CCCCO1 -17.9%
Cc1cc(N/N=C/c2ccccc2F)nc(NCc2ccccc2)n1 2.88%
COc1ccc(Cn2nnnc2CN(Cc2cc3ccc(C)cc3[nH]c2=O)C2CCCC2)cc1 64%
C=CCN(c1ccccc1)S(=O)(=O)c1ccc2c(c1)NC(=O)C(C)C(=O)N2 (stereo unspecified) -23.2%
Cc1ccc(-c2cc(NC(=O)CSc3n[nH]c(N)n3)n(-c3ccccc3)n2)cc1 36.4%
COc1ccc(NC(=O)c2cccc(N3C(=O)c4ccc(C(=O)Nc5ccc(OC)c(O)c5)cc4C3=O)c2)cc1O 11.2%
CCOC(=O)c1c(-c2cccs2)csc1N 3.75%
CCC(C(=O)Nc1ccc2[nH]ncc2c1)c1ccccc1 (stereo unspecified) 32.7%
COc1ccc(C2N(c3ccc(Cl)cc3)N=C(C(C)=O)N(C)N2C(C)=O)cc1 (stereo unspecified) -24.1%
COC(=O)C1CSC(C(=O)OC)N1C(=O)Nc1ccc(Cl)cc1 (stereo unspecified) 2.57%
COCCCNC(=O)CN(C1CCCCC1)S(=O)(=O)c1ccc(C)cc1 -11.1%
Cc1nn(CC(=O)NCc2ccc(C(=O)O)cc2)c(C)c1[N+](=O)[O-] 11.5%
Cc1ccc(S(=O)(=O)N2Cc3ccccc3CC2C(=O)Nn2cnnc2)cc1 (stereo unspecified) -16.4%
CCOc1ccccc1CNC(=O)C(C)n1nc(C)c2c(C)n(-c3ccccc3)nc2c1=O (stereo unspecified) -24.7%
O=C(O)c1cc([N+](=O)[O-])ccc1N1CCCCC1 -3.95%
O=c1[nH]cnc2c1ncn2C1CC(O)C(CO)O1 (stereo unspecified) 1.14%

For convenience, some entries already given:
Activity change, negative = inhibition, inactive:
COC(=O)C1CSC(C(=O)OC)N1C(=O)Nc1ccc(Cl)cc1 (stereo unspecified) 2.57%
COCCCNC(=O)CN(C1CCCCC1)S(=O)(=O)c1ccc(C)cc1 -11.1%
Cc1nn(CC(=O)NCc2ccc(C(=O)O)cc2)c(C)c1[N+](=O)[O-] 11.5%

Quoted at random: 2 entries already listed, in no set order.
Activity change, negative = inhibition, inactive:
COc1ccc(Cn2nnnc2CN(Cc2cc3ccc(C)cc3[nH]c2=O)C2CCCC2)cc1 64%
COCCCNC(=O)CN(C1CCCCC1)S(=O)(=O)c1ccc(C)cc1 -11.1%
